Some of the results follow. Small differences around the control level are noise.
Compound: Cc1nc(Nc2ncc(C(=O)Nc3c(C)cccc3Cl)s2)cc(N2CCN(CCO)CC2)n1 [dasatinib]
Test: log2 fold change of tryptic peptide abundance, ligand vs vehicle (limited proteolysis) (log2 ratio); higher = more trypsin-susceptible (destabilized)
Conditions: ligand concentration: 5 uM; sample: K562 cleared lysate

Amino acid sequences for entries named in this document (tags omitted). A change or cut given only in a name is not applied to a line headed by its entry.
UniProt P41247: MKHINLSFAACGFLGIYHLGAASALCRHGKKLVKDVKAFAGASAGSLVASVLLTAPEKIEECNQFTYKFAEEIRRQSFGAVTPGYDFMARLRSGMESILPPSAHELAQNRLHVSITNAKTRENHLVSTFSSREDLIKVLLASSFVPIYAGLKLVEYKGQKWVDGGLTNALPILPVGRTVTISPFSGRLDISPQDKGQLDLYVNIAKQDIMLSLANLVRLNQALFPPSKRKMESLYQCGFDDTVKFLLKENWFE
UniProt P42356, whole entry, looked up: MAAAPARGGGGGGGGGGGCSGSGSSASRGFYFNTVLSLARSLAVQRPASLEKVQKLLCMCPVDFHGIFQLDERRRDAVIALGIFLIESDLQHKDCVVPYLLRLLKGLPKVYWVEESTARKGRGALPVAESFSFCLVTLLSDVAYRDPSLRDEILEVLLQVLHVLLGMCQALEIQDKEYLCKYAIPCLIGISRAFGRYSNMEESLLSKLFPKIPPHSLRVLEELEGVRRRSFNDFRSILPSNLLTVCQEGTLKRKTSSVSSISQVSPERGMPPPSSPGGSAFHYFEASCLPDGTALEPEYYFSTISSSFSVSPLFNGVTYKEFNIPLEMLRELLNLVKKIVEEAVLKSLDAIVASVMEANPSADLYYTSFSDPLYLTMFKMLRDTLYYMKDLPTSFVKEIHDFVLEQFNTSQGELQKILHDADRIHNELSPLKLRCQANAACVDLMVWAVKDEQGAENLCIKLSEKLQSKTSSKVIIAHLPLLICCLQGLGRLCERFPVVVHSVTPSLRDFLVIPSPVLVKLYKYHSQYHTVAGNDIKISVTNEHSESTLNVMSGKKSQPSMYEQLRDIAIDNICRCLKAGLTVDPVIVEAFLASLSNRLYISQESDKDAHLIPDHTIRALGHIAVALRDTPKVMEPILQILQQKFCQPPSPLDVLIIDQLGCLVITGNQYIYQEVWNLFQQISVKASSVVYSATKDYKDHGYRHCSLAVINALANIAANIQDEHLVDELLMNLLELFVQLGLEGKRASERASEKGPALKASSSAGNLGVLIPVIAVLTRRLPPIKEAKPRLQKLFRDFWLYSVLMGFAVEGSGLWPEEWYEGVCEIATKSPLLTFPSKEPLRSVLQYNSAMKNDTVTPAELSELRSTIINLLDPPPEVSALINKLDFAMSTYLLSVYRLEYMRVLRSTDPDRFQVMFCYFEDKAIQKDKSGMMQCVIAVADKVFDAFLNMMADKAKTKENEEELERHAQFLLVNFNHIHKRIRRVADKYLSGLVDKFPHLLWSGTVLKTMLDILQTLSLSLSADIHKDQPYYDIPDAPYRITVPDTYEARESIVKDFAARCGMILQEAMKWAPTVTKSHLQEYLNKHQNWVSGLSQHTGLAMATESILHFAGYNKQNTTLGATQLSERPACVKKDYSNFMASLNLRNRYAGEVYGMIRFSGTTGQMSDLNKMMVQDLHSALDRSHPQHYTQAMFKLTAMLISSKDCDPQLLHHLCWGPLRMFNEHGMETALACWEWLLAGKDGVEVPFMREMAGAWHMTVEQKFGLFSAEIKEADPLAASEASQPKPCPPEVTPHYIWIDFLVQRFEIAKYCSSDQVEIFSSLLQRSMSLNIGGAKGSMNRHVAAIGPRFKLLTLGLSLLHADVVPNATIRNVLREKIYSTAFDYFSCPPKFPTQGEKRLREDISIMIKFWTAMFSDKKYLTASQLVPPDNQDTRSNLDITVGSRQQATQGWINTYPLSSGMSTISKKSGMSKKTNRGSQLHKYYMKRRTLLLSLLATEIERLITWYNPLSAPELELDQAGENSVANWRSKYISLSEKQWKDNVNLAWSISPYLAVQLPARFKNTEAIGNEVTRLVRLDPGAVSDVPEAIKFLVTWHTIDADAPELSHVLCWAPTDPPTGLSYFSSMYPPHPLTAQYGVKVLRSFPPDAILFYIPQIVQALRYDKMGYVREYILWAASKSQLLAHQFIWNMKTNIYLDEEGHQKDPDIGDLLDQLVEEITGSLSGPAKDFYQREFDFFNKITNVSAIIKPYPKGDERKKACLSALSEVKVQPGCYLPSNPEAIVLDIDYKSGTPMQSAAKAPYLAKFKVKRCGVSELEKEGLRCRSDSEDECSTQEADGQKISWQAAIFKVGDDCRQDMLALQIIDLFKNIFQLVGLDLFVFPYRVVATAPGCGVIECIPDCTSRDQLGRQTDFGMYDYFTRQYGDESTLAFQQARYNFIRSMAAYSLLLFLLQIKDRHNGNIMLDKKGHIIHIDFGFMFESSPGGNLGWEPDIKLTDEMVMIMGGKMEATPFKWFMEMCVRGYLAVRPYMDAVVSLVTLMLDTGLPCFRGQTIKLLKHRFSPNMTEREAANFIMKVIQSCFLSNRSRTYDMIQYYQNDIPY
UniProt P32929, whole entry: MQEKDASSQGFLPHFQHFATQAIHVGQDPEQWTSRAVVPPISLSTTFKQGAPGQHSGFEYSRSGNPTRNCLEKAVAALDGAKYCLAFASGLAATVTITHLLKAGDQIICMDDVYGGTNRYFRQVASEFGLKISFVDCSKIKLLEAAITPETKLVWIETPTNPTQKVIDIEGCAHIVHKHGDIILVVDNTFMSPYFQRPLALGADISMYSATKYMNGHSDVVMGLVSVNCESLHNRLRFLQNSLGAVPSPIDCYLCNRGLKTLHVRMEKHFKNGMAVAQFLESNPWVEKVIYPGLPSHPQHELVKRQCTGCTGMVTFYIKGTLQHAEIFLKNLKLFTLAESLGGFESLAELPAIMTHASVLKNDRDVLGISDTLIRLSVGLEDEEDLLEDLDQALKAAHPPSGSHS
UniProt P29144: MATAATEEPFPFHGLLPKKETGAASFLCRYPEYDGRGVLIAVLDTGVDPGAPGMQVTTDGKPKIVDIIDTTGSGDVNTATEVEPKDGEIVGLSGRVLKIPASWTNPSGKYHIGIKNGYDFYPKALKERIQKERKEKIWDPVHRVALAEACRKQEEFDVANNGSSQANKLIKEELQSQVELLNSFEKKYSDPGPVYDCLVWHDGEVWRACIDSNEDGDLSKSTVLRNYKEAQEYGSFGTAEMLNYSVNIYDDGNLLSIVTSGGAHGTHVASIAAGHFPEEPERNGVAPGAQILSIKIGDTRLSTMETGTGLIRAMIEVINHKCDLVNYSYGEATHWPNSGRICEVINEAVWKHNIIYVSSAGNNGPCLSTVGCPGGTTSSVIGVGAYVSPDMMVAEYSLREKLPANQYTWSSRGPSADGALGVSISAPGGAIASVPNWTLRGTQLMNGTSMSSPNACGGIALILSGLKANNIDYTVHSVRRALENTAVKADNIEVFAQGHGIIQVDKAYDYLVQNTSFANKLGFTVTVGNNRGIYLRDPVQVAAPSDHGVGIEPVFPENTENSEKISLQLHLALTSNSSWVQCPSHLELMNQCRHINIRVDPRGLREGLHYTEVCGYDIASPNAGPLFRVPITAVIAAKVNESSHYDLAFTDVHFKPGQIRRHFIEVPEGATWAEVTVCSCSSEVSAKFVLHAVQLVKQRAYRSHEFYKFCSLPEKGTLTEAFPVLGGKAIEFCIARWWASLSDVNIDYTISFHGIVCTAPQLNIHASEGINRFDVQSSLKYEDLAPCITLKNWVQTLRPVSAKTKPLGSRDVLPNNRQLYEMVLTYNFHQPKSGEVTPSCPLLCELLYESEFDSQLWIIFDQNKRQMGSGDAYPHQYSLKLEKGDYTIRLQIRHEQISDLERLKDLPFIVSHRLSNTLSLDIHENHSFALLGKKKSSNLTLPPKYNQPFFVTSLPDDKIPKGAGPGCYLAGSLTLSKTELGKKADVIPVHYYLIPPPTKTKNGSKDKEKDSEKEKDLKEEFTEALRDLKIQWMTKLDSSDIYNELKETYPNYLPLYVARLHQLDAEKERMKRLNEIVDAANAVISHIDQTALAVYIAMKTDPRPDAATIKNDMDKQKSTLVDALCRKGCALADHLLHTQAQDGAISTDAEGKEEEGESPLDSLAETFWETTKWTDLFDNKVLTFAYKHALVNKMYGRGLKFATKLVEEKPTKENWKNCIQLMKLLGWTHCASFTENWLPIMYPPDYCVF
UniProt P43121, whole entry: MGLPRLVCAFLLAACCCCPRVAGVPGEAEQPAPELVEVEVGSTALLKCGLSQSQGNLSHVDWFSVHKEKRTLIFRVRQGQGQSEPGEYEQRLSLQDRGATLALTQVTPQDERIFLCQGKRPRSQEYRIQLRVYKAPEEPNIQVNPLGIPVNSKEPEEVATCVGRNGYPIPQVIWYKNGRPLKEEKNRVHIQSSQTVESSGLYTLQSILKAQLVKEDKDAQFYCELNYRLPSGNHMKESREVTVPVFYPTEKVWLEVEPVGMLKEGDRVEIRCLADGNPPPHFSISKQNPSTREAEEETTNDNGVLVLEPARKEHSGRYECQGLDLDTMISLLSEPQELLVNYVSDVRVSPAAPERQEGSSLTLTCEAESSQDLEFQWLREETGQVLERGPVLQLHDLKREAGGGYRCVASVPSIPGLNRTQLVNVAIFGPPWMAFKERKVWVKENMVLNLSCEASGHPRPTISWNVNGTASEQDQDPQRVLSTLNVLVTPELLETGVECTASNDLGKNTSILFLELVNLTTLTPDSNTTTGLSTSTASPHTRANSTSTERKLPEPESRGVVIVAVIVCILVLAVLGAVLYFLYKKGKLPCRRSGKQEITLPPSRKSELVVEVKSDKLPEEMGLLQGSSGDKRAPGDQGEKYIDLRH
UniProt P34059: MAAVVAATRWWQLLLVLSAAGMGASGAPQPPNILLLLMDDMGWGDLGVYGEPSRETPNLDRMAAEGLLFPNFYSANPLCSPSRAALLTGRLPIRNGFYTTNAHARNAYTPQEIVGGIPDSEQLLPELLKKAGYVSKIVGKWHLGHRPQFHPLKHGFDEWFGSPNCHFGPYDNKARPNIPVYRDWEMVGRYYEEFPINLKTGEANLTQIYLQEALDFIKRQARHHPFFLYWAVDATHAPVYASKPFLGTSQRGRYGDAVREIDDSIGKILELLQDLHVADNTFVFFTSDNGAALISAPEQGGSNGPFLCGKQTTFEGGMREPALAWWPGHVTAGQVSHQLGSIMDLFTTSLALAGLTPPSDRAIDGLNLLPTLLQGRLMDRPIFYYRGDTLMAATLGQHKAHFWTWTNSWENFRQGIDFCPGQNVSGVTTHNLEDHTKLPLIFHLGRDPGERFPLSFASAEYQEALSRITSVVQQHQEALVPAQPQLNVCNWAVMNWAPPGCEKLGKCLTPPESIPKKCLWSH
UniProt P31947: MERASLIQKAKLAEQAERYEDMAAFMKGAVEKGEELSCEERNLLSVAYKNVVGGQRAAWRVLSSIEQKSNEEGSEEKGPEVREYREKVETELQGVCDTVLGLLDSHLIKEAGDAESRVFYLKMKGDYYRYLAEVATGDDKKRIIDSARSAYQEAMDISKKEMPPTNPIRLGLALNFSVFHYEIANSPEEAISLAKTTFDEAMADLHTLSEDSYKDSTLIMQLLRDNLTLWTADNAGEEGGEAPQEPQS
UniProt P41567, whole entry: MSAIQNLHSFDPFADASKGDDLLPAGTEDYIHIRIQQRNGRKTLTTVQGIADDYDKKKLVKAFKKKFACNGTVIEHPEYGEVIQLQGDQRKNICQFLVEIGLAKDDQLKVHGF

Target | log2 fold change
PNPLA4 (peptide sequence: KMESLYQCGFDDTVK, peptide start residue: 230) (UniProt P41247) | 0.477
UniProt P42356 (peptide sequence: LCERFPVVVHSVTPSLR, peptide start residue: 492) | -0.449
RPL9 (peptide sequence: RDFNHINVELSLLGK, peptide start residue: 36) (UniProt P32969) | 0.137
CTH (peptide sequence: QVASEFGLK, peptide start residue: 123) (UniProt P32929) | -0.333
TPP2 (peptide sequence: WTDLFDNK, peptide start residue: 1173) (UniProt P29144) | -0.261
MCAM (peptide sequence: SDKLPEEMGLLQGSSGDKR, peptide start residue: 614) (UniProt P43121) | 0.503
GALNS (peptide sequence: NGFYTTNAHAR, peptide start residue: 95) (UniProt P34059) | -0.199
SFN (peptide sequence: SAYQEAMDISKK, peptide start residue: 149) (UniProt P31947) | 0.299
NUP214 (peptide sequence: DAGGMVIDMK, peptide start residue: 147) (UniProt P35658) | -0.521
EIF1 (peptide sequence: KNICQFLVEIGLAKDDQLK, peptide start residue: 91) (UniProt P41567) | 0.141

Pulled one by one from the entries so far (2):
Target | log2 fold change
NUP214 (peptide sequence: DAGGMVIDMK, peptide start residue: 147) (UniProt P35658) | -0.521
MCAM (peptide sequence: SDKLPEEMGLLQGSSGDKR, peptide start residue: 614) (UniProt P43121) | 0.503

Reference: the supplement of paper PMC12819154, “High-throughput peptide-centric local stability assay extends protein–ligand identification to membrane proteins, tissues and bacteria” (Nature Structural & Molecular Biology, 2025)
